# PubChem BioAssay AID1259424 | University of Nebraska Medical Center, 2018
# Test: 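Rank knockdowns across the genome by resemblance to the KSR1 depletion profile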 (primary screen)
# Cells: human HCT116 colon cancer cells
# Knock-down reagent: siRNA pool against human genes, 50 nM
# Read-out: 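Six signature mRNAs by branched-DNA multiplex assay, scaled to two housekeeping genes and non-targeting median, log2; matched to mean KSR1 knockdown profile by Pearson correlation and euclidean distance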
# Scale: mean correlation with KSR1 profile and KSR1 correlation: higher = expression change more like KSR1 knockdown; mean distance from KSR1 profile: higher = expression change less like KSR1 knockdown
# Shown is an unselected part of about 14,000 reagents tested. 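Higher correlation or smaller distance means closer resemblance to KSR1 loss; control wells, including KSR1 knockdowns, recur on many plates.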 Not stated in the record: the time to read-out.
target,mean correlation with KSR1 profile,mean distance from KSR1 profile,"KSR1 correlation, replicate 1","KSR1 correlation, replicate 2","KSR1 correlation, replicate 3"
CDKN1C,0.555,1.36,0.414,0.627,0.372
DGKA,0.363,2.44,0.63,0.0413,0.088
RAD51B,-0.415,1.54,-0.521,-0.669,-0.0431
DDX3X,0.293,1.92,0.298,0.389,0.0929
WWOX,0.165,1.07,0.475,-0.0945,0.291
PDE3A,0.225,1.3,0.0482,0.284,0.36
CDK3,0.902,1.64,0.885,0.885,0.834

As entered above.
DDX3X, KSR1 correlation, replicate 3 = 0.0929
Value of CDKN1C under “KSR1 correlation, replicate 3”: 0.372

The listing continues.
target,mean correlation with KSR1 profile,mean distance from KSR1 profile,"KSR1 correlation, replicate 1","KSR1 correlation, replicate 2","KSR1 correlation, replicate 3"
UNC93B1,0.00599,2.12,-0.341,-0.227,0.271
CNTNAP4,0.914,1.11,0.856,0.858,0.829
ERCC5,-0.651,1.94,-0.528,-0.773,-0.684
MMP23B,0.696,1.33,0.522,0.669,0.379
SRRM4,0.41,6.13,0.514,0.515,0.00523
EDN1,0.269,2.03,0.362,0.0982,0.232
CCNB3,0.281,1.48,0.249,0.275,0.195
IKZF4,-0.661,1.37,-0.213,-0.604,-0.577
SFTPC,-0.254,1.95,-0.461,-0.249,-0.0181
DMP1,-0.639,2.62,-0.535,-0.695,-0.712
CCDC28B,-0.252,1.27,-0.345,-0.589,-0.526
TKTL1,0.561,1.32,0.391,0.394,0.505
YPEL5,-0.776,4.26,-0.754,-0.639,-0.695
